Laboratory results reported in PubChem BioAssay AID720709 (National Center for Advancing Translational Sciences (NCATS), 2013).
In all, about 360,000 compounds went through this assay and about 520 (0.14%) were called active. The source calls these results inconclusive, neither active nor inactive. Calls come from the whole dose curve; as a rule, active = well fitted inhibition curve with a large enough effect; inconclusive = small, poorly fitted or top-dose-only effect; inactive = no such curve, though single readings can be large or run the other way. Some results for these compounds are left out of this collection, so the calls shown say nothing about other tests.

Protein sequences, listed by entry. Tags and fused reporters are not part of them.
UniProt O95398, whole entry: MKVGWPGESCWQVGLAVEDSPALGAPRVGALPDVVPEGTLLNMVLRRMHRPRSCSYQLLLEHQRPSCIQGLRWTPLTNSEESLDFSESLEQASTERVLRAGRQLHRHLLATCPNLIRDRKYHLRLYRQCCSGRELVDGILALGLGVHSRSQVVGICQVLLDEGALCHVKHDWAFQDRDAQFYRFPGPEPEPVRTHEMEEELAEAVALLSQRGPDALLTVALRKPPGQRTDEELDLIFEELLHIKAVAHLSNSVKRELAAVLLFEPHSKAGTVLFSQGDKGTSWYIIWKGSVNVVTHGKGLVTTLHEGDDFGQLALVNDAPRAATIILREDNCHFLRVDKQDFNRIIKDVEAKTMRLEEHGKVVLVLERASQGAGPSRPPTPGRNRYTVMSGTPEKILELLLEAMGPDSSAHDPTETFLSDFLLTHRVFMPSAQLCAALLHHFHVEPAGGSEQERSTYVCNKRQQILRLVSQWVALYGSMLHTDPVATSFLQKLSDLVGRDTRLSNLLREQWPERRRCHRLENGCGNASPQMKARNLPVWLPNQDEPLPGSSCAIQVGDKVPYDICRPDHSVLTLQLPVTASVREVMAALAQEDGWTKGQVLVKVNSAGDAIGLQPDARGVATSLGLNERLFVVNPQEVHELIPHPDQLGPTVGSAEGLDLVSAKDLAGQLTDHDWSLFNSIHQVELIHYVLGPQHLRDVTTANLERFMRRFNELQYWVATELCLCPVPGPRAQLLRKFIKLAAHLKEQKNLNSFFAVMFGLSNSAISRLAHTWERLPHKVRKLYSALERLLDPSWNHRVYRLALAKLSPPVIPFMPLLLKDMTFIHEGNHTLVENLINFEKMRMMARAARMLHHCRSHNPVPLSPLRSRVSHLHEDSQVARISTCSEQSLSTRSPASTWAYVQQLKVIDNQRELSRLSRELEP

target: Rap guanine nucleotide exchange factor 3 (Homo sapiens) (UniProt O95398); assay: qHTS for Antagonist of cAMP-regulated guanine nucleotide exchange factor 3 (EPAC1): primary screen; conditions: EPAC1 GEF assay, Rap1b-BODIPY-GDP exchange fluorescence; note: nearly all actives have a fitted effect of over 50% in size
Source text: In multi-cellular eukaryotic organisms, the effects of cAMP are transduced by two ubiquitously-expressed intracellular cAMP receptors, the classic protein kinase A/cAMP-dependent protein kinase (PKA/cAPK) and the more recently discovered exchange protein directly activated by cAMP/cAMP-regulated guanine nucleotide exchange factor (EPAC/cAMP-GEF). Both PKA and EPAC are ubiquitously expressed in all tissues, and an increase in intracellular cAMP levels will lead to the activation of both PKA and EPAC. […] This qHTS will be used to screen the Molecular Libraries Small Molecule Repository (MLSMR) as a concentration-titration series using the NCGC unique quantitative screening (qHTS) platform to find inhibitors for EPAC1. […] Inhibitors are identified by monitoring the change in fluorescence signal as the exchanged free BODIPY-GDP has a reduced fluorescence compared to Rap1-bound BODIPY-GDP. […]
Briefly, three uL of reagents (100 nM EPAC1, 250 nM RAP1B-BODIPY-GDP, 50 uM GDP) were dispensed into a 1536-well Greiner black solid-bottom medium binding assay plate. […] The assay plates were read at 5 minute intervals for 30 minutes in the ViewLux plate reader using 480nm excitation and 540nm emission filters. […]
Potency is the fitted concentration of half-maximal effect.

SMILES | Potency
Cc1ccc(C(=O)NCC2(N3CCCCC3)CCCCC2)cc1 | inconclusive: 56.2 µM
